{"source": "PubChem BioAssay AID1259254 (NCATS, 2017)", "aim": "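Finding genes that stop cells copying their DNA twice in one cycle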 (primary screen)", "cell system": "human HCT116 colorectal cancer cells", "reagents": "single siRNA against human genes", "duration": "3 days", "measurement": "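Nuclei stained with Hoechst and imaged; cell-cycle phase assigned by DNA content; G2 share scaled per plate, non-targeting siRNA 0%, GMNN siRNA 100%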", "reading the numbers": "G2 robust z-score and G2 cells, % of GMNN control: higher = more G2 cells, more excess DNA replication", "rule for the call": "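Active siRNAs have a G2 robust z of 5 or more median absolute deviations over the median, which in these data means about 38% or higher of GMNN control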", "note": "Shown is one part, drawn at random, of about 59,000 deposited reagents. About 1,550 of them (2.6%) count as active. 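G2 share is only a proxy for re-replication; each gene was hit by three separate siRNAs, and active genes were retested.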 Unmarked entries are inactive. Reagents against one gene are numbered here. Further read-outs or replicates are left out here. The record does not give: the amount of reagent."}
{"target gene": "AGXT2", "reagent no.": 1, "G2 robust z-score": 1.3, "G2 cells, % of GMNN control": 12.1}
{"target gene": "AGXT2", "reagent no.": 2, "G2 robust z-score": -0.918, "G2 cells, % of GMNN control": -3.49}
{"target gene": "AGXT2", "reagent no.": 3, "G2 robust z-score": -1.13, "G2 cells, % of GMNN control": -4.97}
{"target gene": "AIPL1", "reagent no.": 1, "G2 robust z-score": 0.436, "G2 cells, % of GMNN control": 6.04}
{"target gene": "AIPL1", "reagent no.": 2, "G2 robust z-score": "6.44 (active)", "G2 cells, % of GMNN control": 48.3}
{"target gene": "AIPL1", "reagent no.": 3, "G2 robust z-score": -1.1, "G2 cells, % of GMNN control": -4.74}
{"target gene": "AMZ1", "reagent no.": 1, "G2 robust z-score": 3.31, "G2 cells, % of GMNN control": 26.2}
{"target gene": "AMZ1", "reagent no.": 2, "G2 robust z-score": 2.79, "G2 cells, % of GMNN control": 22.6}
{"target gene": "AMZ1", "reagent no.": 3, "G2 robust z-score": 0.795, "G2 cells, % of GMNN control": 8.56}
{"target gene": "AARS1", "reagent no.": 1, "G2 robust z-score": -0.727, "G2 cells, % of GMNN control": -2.15}
{"target gene": "AARS1", "reagent no.": 2, "G2 robust z-score": 4.6, "G2 cells, % of GMNN control": 35.4}
{"target gene": "AARS1", "reagent no.": 3, "G2 robust z-score": 1.07, "G2 cells, % of GMNN control": 10.5}

Reagents listed above marked active (1):
{"target gene": "AIPL1", "reagent no.": 2, "G2 robust z-score": "6.44 (active)", "G2 cells, % of GMNN control": 48.3}

Continued:
{"target gene": "ASPNAT", "reagent no.": 1, "G2 robust z-score": "6.25 (active)", "G2 cells, % of GMNN control": 47}
{"target gene": "ASPNAT", "reagent no.": 2, "G2 robust z-score": -0.408, "G2 cells, % of GMNN control": 0.0969}
{"target gene": "ASPNAT", "reagent no.": 3, "G2 robust z-score": -0.505, "G2 cells, % of GMNN control": -0.582}
{"target gene": "MLLT3", "reagent no.": 1, "G2 robust z-score": -0.382, "G2 cells, % of GMNN control": 0.281}
{"target gene": "MLLT3", "reagent no.": 2, "G2 robust z-score": -0.387, "G2 cells, % of GMNN control": 0.243}
{"target gene": "MLLT3", "reagent no.": 3, "G2 robust z-score": 0.512, "G2 cells, % of GMNN control": 6.57}
